Results deposited as PubChem BioAssay AID1259261 (Sanger Institute, 2017).

- Purpose: 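Kinase knock-downs that kill colorectal cancer cells or boost targeted drugs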 (primary screen)
- System: HCC2998 human colorectal cancer cells
- Knock-down reagent: siRNA pool against human genes
- Challenge: anchor drugs BYL719 1 µM, cetuximab 5 µg/ml or trametinib 10 nM, each compared with DMSO vehicle
- Measurement: 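Cell viability relative to non-targeting siRNA, averaged over replicates, with robust z-score for siRNA alone and synergy scores with each anchor drug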
- Scale: viability z-score, knock-down alone: higher = more viable cells than controls; viability fraction, knock-down alone: higher = more viable cells; synergy score with BYL719: higher = stronger combined killing with BYL719; synergy score with trametinib: higher = stronger combined killing with trametinib; synergy score with cetuximab: higher = stronger combined killing with cetuximab
- Hit rule: 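Essential when the siRNA-alone viability robust z-score is below -3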
- Calls: active = essential; inactive = no change
Here is an unselected part of 794 reagents. 10 of all reagents (1.3%) were called active. 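Calls reflect knock-down alone without drug; synergy scores with BYL719, cetuximab or trametinib do not affect calls.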 Viability is capped at 1. No sequences are given here. Not given: the amount of reagent, the time to read-out.

no.	Gene	viability z-score, knock-down alone	viability fraction, knock-down alone	synergy score with BYL719	synergy score with trametinib	synergy score with cetuximab	outcome
1	DYRK2 (GeneID 8445)	-0.187	0.825	0.0598	0.127	-0.138	inactive
2	PGK1 (GeneID 5230)	0.107	0.862	-0.0581	-0.016	-0.0266	inactive
3	MAPK12 (GeneID 6300)	1.21	1	-0.109	-0.0162	-0.0432	inactive
4	PRKACG (GeneID 5568)	-0.734	0.757	0.0665	0.215	-0.00921	inactive
5	ULK4 (GeneID 54986)	-0.466	0.79	-0.0432	0.0764	-0.0703	inactive
6	SGK3 (GeneID 23678)	-0.229	0.82	-0.125	-0.0182	0.00283	inactive
7	CSNK1G1 (GeneID 53944)	-1.87	0.615	-0.144	-0.1	-0.00948	inactive
8	ATR (GeneID 545)	-1.1	0.711	-0.115	0.00984	-0.096	inactive
9	STK17A (GeneID 9263)	-0.689	0.762	0.0331	0.055	0.00906	inactive
10	PKN3 (GeneID 29941)	0.334	0.891	0.157	0.113	0.00023	inactive
11	GALK2 (GeneID 2585)	-0.199	0.824	0.00244	0.114	0.0151	inactive
12	IP6K2 (GeneID 51447)	-0.502	0.786	-0.0475	0.154	-0.0941	inactive
13	FGFR3 (GeneID 2261)	-0.775	0.752	-0.0642	0.069	-0.0866	inactive
14	AK7 (GeneID 122481)	0.728	0.94	-0.00275	0.0349	0.00302	inactive
15	RIOK1 (GeneID 83732)	-0.132	0.832	-0.131	0.0692	-0.0849	inactive
16	PHKA1 (GeneID 5255)	-0.8	0.749	-0.192	-0.0515	-0.0993	inactive
17	AKT2 (GeneID 208)	0.859	0.957	0.141	0.186	-0.0334	inactive
18	NME6 (GeneID 10201)	-0.0752	0.839	0.00997	0.0341	0.0445	inactive
19	FXN (GeneID 2395)	0.439	0.904	-0.0189	0.0806	-0.078	inactive
20	MUSK (GeneID 4593)	-2.8	0.497	-0.0532	0.0304	-0.0338	inactive
21	AKT1 (GeneID 207)	0.22	0.876	-0.0313	-0.0814	-0.0567	inactive
22	PASK (GeneID 23178)	-0.24	0.819	-0.00524	0.0354	0.0494	inactive
23	PRKCG (GeneID 5582)	-0.0344	0.845	-0.0798	-0.00935	-0.125	inactive
24	TCF7L2 (GeneID 6934)	0.599	0.924	-0.162	-0.208	-0.0337	inactive
25	PRKAR2B (GeneID 5577)	-2.98	0.475	-0.136	-0.0619	-0.0589	inactive
26	MERTK (GeneID 10461)	-0.911	0.735	-0.124	-0.00238	0.0288	inactive
27	STK32A (GeneID 202374)	1.21	1	-0.0763	0.0749	-0.0432	inactive
28	MARK2 (GeneID 2011)	1.21	1	-0.0907	0.0137	-0.0432	inactive
29	PKLR (GeneID 5313)	-1.78	0.626	-0.0856	0.068	-0.149	inactive
30	FLT3 (GeneID 2322)	-0.851	0.742	-0.0783	0.0053	-0.0567	inactive
31	HASPIN (GeneID 83903)	-1.79	0.624	-0.136	0.0124	-0.0595	inactive
32	ELF3 (GeneID 1999)	-1.4	0.673	0.0512	0.0201	-0.0851	inactive
33	HK1 (GeneID 3098)	1.21	1	-0.105	-0.0656	-0.0432	inactive
34	MAP4K5 (GeneID 11183)	0.113	0.863	0.0332	0.0459	0.0435	inactive

Look-ups from the list:
PKN3 (GeneID 29941), synergy score with cetuximab → 0.00023
PRKAR2B (GeneID 5577), outcome: inactive
FXN (GeneID 2395), synergy score with trametinib → 0.0806
Under “outcome”, ULK4 (GeneID 54986) reads inactive
STK17A (GeneID 9263), viability z-score, knock-down alone = -0.689
Under “synergy score with cetuximab”, MAPK12 (GeneID 6300) reads -0.0432
